Some results were stated once for a whole list of compounds, not compound by compound.
System: T-cells from PBMC bulk cultures of healthy donors
Assay: Peptide-specific T-cell proliferation after stimulation of PBMC with cocktail fsp2+fsp8+fsp9 (Example 7)
Type: cell-based, human
Details: FIGS. 16-18
Method: PBMCs isolated from buffy coats from four healthy donors (obtained from a blood bank) were suspended in complete CellGro DC medium to 15*10^6 cells/ml and diluted to 4*10^6 cells/ml (Table 14).
On day 1, 1 ml of PBMC suspension (4×10^6 cells/ml) from each donor was transferred to wells of 24-well plates (4*10^6 cells per well) and 60 μl of the peptide cocktail (fsp2+fsp8+fsp9) stock solution (166.67 μM/each peptide) was added to each well. The plates were incubated in a cell incubator for 14 days. IL-2 and IL-7 was added on day 3 (0.50 ml DC medium containing 60 U/ml IL-2 and 15 ng/ml IL-7). The cells were inspected daily and DC medium with cytokines (IL-2, IL7) was refreshed according to in house laboratory routines.
The in vitro stimulation of bulk cultures was repeated a further two times (i.e. a total of three stimulations) using PBMCs harvested after the preceding round of in vitro stimulation. Peptide specific T-cell proliferation was tested on day 14, after each round of stimulation, such that T-cell proliferation was tested on days 14, 28 and 42 after the first round of stimulation.
The cells from the bulk cultures were harvested (5 minutes at 300×g centrifugation) and re-suspended in DC medium (5 ml). An aliquot of the 5 ml resuspension was diluted 5 times and the T-cells counted in order to calculate the volume required to provide 5×10^4 cells per well for the proliferation assay. […] The cells were counted (CPM) by using the standard in-house laboratory protocol (TopCount Packard microplate scintillation beta counter and run programme).
Peptide-specific T-cell proliferation was measured after 14 days of stimulation of PBMC bulk cultures with a peptide cocktail containing fsp2, fsp8 and fsp9 (10 μM each peptide). […]
Peptide-specific T-cell proliferation was measured after 14 days of re-stimulation of PBMC with a peptide cocktail containing fsp2, fsp8 and fsp9 (10 M each peptide). […]
Peptide-specific T-cell proliferation was measured after 14 days of a further re-stimulation of PBMC with a peptide cocktail containing fsp2, fsp8 and fsp9 (10 M each peptide). […]

Sequence | SI (in two out of three donors) | SI (in all three donors)
KTILKKAGIGMCVKVSSIFFINKQK (listed as Homo sapiens) [fsp9, peptide of −1a frameshifted TAF1β] | greater than 2 | –
KGIMKEKKSLVRLSSCVPVALMSA (Modified peptide) [fsp2, modified peptide of −1a frameshifted TGFβR2] | – | greater than 2
RNRIPAVLRTEGEPLHTPSVGMRET (listed as Homo sapiens) [fsp8, peptide of −1a frameshifted ASTE1] | greater than 2 | –
